Among all 400,000 compounds or so, about 13,000 (3.2%) were called active. The source calls these results inconclusive, neither active nor inactive. Calls come from the whole dose curve; as a rule, active = well fitted cell-killing curve with a large enough effect; inconclusive = small, poorly fitted or top-dose-only effect, or effect the other way; inactive = flat fitted curve, though single readings scatter.
Test: qHTS assay for MDR1-selective chemotherapeutics: Primary screen using the drug-selected MDR subline cells KB-V1; note: nearly all actives have a fitted effect of over 60% in size
Conditions: KB-V1 MDR cells viability, CellTiter-Glo, 72 h
Description: A prime difficulty in effectively treating cancer is the development of cellular resistance to multiple structurally unrelated anticancer drugs, a phenomenon known as multidrug resistance (MDR). […] Numerous strategies to overcome P-gp-mediated MDR have been explored, including the design of drugs that evade recognition and efflux, and development of inhibitors to block efflux and restore drug accumulation. […] An alternative approach is to exploit resistance by identifying drugs that target MDR cells over the non-resistant parental cells from which they were selected. […] The development of MDR1-selective agents represents a new strategy for resolving multidrug resistance, as it remains a long-standing clinical challenge for cancer chemotherapy.
Our goal is to identify compounds that selectively kill P-gp-expressing MDR cells. We will identify MDR1-selective compounds by comparing toxicity of compounds in the screening library against parental, drug-naive (KB-3-1) adenocarcinoma cells as well as their drug-selected MDR sub-line (KB-V1). The differential toxicity of compounds against these two cell lines will be used to identify MDR1-selective compounds, whose cytotoxicity is potentiated, rather than diminished, by P-gp expression. This assay will be utilized to conduct a quantitative high-throughput screen (qHTS) in collaboration with the NIH Chemical Genomics Center to identify selective agents, and probe hits arising from the screen will be validated using secondary assays and characterized through a well-established follow-up research program. This screen was run against the entire NCGC library collection of about 400,000 compounds.
NIH Molecular Libraries Probe Production Network [MLPCN] […]
Briefly, 5 microL of media containing either KB-V1 cells (columns 1-2, 4-48) are dispensed into Greiner white, treated solid-bottom 1536-well assay plates (media-only control is added to column 3). […] CellTiter-Glo (2.5 µL/well) is then added, and the plates are read in a ViewLux reader (Perkin-Elmer, clear luminescence filter, 1 second exposure, 1x binning) following a 10 minute incubation. […]
For `ClCCN(CCCl)c1ccccc1`, the Potency was inconclusive: 25.9 µM.
For `Cc1cc(N(CCCl)CCCl)ccc1C=O`, the Potency was inconclusive: 29.1 µM.
With `O=[N+]([O-])c1cc([N+](=O)[O-])c(Nc2ccc(Cl)cc2)c([N+](=O)[O-])c1` the Potency was inconclusive: 16.4 µM.

Source: PubChem BioAssay AID1347076 (National Center for Advancing Translational Sciences (NCATS), 2019)
Potency is the fitted concentration of half-maximal effect.
